Results from publication PMC9916828.
These are yes or no findings as the source states them, for the method shown. In cells and extracts the contact can be indirect. Some entries that bind do so weakly or less than the wild type.

Sequences of proteins named here, by UniProt entry; tags and fusion partners are left off. Residues count along the entry.
UniProt P37238: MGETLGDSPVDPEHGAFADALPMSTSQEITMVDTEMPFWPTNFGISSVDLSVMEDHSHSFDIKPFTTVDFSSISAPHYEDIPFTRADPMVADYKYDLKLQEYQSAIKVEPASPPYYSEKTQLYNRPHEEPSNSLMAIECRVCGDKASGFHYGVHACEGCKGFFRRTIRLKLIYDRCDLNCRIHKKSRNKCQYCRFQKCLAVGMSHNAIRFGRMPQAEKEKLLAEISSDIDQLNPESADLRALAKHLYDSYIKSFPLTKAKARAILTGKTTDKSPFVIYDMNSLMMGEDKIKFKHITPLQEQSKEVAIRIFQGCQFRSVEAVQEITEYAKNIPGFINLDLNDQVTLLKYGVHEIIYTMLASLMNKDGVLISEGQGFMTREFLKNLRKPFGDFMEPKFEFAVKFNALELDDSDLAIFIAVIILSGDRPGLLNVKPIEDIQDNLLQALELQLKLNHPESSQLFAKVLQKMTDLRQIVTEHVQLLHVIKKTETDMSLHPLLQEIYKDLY
UniProt P19091: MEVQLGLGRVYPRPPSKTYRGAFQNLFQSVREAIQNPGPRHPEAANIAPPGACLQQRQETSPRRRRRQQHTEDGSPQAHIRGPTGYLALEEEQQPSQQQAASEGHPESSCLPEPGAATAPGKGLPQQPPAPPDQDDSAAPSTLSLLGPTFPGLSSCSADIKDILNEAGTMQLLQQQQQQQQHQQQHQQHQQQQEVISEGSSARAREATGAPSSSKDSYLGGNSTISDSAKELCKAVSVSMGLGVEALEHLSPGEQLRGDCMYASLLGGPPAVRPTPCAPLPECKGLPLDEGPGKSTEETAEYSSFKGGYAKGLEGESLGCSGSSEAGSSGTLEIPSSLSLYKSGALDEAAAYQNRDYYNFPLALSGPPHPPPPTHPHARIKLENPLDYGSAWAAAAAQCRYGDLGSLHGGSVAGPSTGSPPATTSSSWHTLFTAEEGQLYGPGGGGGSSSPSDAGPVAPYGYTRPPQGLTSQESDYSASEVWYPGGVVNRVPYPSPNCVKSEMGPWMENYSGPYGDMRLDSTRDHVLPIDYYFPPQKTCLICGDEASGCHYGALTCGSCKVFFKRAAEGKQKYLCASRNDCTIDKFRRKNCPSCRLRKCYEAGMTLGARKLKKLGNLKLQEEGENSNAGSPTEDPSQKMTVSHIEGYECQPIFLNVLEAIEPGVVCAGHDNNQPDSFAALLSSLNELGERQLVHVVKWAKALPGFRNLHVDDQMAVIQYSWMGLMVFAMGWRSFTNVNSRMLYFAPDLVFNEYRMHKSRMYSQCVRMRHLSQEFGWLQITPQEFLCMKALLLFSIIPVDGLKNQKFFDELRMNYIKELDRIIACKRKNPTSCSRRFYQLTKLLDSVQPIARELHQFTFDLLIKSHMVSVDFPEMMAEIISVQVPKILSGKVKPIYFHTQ
UniProt P63017: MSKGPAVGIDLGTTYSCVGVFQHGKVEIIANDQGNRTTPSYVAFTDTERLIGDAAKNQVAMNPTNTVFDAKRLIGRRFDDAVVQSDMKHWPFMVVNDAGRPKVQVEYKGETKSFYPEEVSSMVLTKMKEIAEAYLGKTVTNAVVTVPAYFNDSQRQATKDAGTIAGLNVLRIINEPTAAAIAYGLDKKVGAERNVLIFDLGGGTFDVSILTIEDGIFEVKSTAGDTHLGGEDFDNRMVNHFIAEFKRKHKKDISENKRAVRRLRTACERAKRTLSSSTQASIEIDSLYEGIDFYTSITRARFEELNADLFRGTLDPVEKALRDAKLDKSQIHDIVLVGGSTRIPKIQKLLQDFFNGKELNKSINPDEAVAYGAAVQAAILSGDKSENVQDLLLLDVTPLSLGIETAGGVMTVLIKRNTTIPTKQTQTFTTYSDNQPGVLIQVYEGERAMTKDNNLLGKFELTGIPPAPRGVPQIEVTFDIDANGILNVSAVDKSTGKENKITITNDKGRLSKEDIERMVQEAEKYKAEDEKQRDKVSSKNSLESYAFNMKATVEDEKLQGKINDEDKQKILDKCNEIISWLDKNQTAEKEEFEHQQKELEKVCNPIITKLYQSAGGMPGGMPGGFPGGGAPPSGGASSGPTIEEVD
UniProt P11627, residues 20-1260: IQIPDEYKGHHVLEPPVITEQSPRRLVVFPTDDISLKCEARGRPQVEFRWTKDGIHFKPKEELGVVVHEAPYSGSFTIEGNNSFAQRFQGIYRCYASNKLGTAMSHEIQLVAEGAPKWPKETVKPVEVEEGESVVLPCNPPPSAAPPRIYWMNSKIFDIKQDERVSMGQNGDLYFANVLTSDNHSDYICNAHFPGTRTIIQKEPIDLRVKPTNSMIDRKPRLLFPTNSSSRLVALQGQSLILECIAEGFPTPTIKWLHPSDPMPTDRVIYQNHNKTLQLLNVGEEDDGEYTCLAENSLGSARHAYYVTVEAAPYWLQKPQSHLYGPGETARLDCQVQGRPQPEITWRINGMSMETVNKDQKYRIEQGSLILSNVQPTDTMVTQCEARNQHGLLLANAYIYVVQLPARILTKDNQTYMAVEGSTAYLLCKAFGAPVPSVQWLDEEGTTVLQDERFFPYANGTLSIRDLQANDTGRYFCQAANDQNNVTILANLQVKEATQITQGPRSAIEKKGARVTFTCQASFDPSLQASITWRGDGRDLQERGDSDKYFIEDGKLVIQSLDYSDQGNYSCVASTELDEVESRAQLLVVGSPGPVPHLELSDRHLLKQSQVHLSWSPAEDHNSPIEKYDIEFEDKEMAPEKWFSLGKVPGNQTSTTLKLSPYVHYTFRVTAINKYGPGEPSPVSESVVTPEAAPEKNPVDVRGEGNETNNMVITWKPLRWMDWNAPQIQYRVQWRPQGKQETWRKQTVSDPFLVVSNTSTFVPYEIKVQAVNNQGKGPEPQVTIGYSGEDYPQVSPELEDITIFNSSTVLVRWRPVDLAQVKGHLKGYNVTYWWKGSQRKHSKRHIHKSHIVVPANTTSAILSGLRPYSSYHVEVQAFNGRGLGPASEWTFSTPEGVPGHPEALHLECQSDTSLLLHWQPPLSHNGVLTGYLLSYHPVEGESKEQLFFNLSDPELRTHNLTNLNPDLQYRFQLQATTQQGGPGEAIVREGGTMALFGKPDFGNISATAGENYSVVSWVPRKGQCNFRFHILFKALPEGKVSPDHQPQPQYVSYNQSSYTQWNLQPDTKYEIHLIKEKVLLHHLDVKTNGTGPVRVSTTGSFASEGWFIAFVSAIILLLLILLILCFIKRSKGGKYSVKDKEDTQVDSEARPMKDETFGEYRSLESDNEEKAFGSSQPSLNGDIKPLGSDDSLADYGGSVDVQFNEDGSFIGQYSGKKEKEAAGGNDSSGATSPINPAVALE

Experiments:
[1] = molecular target: peroxisome proliferator-activated receptor γ (PPARγ), endogenous mouse (mouse (endogenous in brain and cultured neurons)) (UniProt P37238); assay: proximity ligation; cultured mouse cortical neurons without or with 50 µg/mL tat-P4 peptide, without or with L1 antibody 557; L1 antibody with TOP1 or PPARγ antibody
[2] = molecular target: T1, topoisomerase 1 (TOP1), endogenous mouse (mouse (endogenous in brain and cultured neurons)) (UniProt Q04750); assay: as above
T1 sequence: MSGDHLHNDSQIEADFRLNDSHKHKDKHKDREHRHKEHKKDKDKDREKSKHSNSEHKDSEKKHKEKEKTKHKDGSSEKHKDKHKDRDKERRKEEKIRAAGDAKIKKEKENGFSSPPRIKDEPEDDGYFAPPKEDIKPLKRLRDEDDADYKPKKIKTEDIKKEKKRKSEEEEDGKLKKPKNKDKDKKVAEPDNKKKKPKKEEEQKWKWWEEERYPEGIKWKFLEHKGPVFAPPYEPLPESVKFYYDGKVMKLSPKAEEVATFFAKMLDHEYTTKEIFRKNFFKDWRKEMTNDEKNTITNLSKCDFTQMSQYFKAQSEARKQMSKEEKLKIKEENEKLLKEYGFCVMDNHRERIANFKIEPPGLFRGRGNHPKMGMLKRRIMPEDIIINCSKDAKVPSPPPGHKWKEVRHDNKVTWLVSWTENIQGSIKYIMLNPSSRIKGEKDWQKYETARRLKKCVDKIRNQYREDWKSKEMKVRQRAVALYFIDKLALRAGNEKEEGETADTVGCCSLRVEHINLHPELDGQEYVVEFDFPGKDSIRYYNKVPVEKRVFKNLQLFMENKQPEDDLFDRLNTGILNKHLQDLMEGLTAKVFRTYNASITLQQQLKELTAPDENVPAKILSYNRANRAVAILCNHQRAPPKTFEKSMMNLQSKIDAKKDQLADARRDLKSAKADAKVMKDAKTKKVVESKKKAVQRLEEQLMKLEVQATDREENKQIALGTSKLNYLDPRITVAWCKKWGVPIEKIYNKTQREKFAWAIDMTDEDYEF

[3] = molecular target: androgen receptor (AR), endogenous mouse (mouse (endogenous in cultured cortical neurons)) (UniProt P19091); assay: proximity ligation; fixed, permeabilised cultured mouse cortical (and cerebellar) neurons from wild-type or L1 mutant mice; mouse L1 antibody C-2 with goat or rabbit antibodies against the partner, or rabbit L1 antibody ab12399 with mouse antibodies; cells treated with vehicle, 1 µM aprotinin, 50 µg/mL L1 antibody 557 or siRNAs
[4] = molecular target: heat shock cognate protein 71 kDa (Hsc70), endogenous mouse (mouse (endogenous in cultured cortical neurons)) (UniProt P63017); assay: as above
[5] = molecular target: T2, non-POU domain-containing octamer-binding protein (NonO), endogenous mouse (mouse (endogenous in cultured cortical neurons)) (UniProt Q99K48); assay: as above
T2 sequence: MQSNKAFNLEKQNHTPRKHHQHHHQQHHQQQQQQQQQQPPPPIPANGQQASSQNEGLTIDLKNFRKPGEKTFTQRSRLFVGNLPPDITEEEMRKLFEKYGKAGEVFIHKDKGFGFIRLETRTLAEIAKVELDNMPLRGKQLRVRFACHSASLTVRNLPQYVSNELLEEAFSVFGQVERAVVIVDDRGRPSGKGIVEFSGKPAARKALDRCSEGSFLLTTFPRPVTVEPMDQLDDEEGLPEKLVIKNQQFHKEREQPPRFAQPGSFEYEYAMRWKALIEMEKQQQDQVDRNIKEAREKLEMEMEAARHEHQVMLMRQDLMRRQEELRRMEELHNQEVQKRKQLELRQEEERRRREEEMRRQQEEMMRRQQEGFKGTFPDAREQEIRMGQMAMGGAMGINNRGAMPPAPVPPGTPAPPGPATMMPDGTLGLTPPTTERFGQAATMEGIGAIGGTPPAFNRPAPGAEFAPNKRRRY

[6] = molecular target: peroxisome proliferator-activated receptor γ (PPARγ), endogenous mouse (mouse (endogenous in brain and cultured neurons)) (UniProt P37238); assay: as above

- binding [1]: binds
- binding [2]: binds
- binding [3]: binds
- binding [4]: binds
- binding [5]: binds
- binding [6]: binds
Substance: cell adhesion molecule L1, endogenous in wild-type mouse neurons (from UniProt P11627 20-1260)
